Experimental data taken from patent publication US20130039922A1.
These are yes or no findings as the source states them, for the method shown. In cells and extracts the contact can be indirect. Some binding calls cover weakened binding; strength is not graded here.

Sequences of proteins named here, by UniProt entry; tags and fusion partners are left off. Residues count along the entry.
UniProt P41245, residues 108-730: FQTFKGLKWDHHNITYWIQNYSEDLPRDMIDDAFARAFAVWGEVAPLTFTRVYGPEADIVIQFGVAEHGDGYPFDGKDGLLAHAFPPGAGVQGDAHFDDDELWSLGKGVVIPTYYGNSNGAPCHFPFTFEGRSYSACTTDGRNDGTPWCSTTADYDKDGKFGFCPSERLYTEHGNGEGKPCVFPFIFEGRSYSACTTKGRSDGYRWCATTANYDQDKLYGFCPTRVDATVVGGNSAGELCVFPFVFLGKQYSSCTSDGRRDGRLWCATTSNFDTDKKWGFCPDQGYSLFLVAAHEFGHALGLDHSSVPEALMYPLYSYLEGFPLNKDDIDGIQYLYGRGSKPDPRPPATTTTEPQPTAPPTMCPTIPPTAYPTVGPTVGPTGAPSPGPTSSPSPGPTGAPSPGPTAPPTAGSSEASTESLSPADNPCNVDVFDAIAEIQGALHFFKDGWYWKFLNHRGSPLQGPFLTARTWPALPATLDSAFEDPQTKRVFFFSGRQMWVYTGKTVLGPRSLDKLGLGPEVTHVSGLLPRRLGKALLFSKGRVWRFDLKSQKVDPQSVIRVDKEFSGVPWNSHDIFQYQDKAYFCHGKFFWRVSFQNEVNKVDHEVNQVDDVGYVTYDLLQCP
UniProt P33434, residues 110-467: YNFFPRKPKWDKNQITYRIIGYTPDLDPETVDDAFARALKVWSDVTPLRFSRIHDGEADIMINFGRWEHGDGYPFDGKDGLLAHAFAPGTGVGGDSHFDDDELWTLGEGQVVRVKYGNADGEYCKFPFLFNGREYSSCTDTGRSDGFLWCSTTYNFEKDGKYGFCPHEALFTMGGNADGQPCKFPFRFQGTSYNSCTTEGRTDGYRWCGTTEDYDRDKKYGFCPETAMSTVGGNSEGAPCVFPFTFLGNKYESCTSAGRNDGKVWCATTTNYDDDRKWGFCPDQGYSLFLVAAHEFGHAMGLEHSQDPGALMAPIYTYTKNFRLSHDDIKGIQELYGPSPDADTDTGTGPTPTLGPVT

Key:
[1] = target: native mouse MMP-9 in its activated form (ascitic fluid) (mouse) (UniProt P41245); experiment: co-immunoprecipitation from ascitic fluid, western blot (FIG. 7A)
[2] = target: active MMP-2 fragment (catalytic and fibronectin domain) (mouse) (UniProt P33434); experiment: pull-down with SDS3 on protein A beads, SDS-PAGE, Coomassie (FIG. 7B)
[3] = target: active MMP-2 fragment (catalytic and fibronectin domain) (mouse) (UniProt P33434); experiment: pull-down with SDS3 on protein A Sepharose beads, SDS-PAGE, Coomassie
[4] = target: active MMP-2 fragment (catalytic and fibronectin domain) (mouse) (UniProt P33434); experiment: pull-down with SDS3 on protein A beads, SDS-PAGE, Coomassie staining
[5] = target: native mouse MMP-9 in its activated form (ascitic fluid) (mouse) (UniProt P41245); experiment: co-immunoprecipitation from ascitic fluid on protein G beads, western blot with commercial anti-MMP-9 antibody

binding [1]: binds
binding [2]: binds
binding [3]: binds
binding [4]: binds
binding [5]: binds
B1: SDS3 (antibody, V domains shown)
VH: VQLQESGGGLVKPGGSLKLSCAASGFAFSTYDMSWIRQTPEKRLEWVATISSGGSYTYYPDSVKGRFTISKDNARNTLYLQMSSLRSGDTALYYCTRFRYDGWYFDVWGQG
VL: DVLITQTPLSLPVSLGDQASISCRSSQSIVHSNGNTFLEWYLQKPGQSPKLLIYKVSNRFSGVPDRFSGSGSGTDFTLKISRVEAEDLGVYYCFQASHVPPTFGGG
